Assay results from paper PMC5397071.
No constants are given. Whether binding was seen depends on the method and setting. In cells and extracts the contact can be indirect. Some binding calls cover weakened binding; strength is not graded here. One block for each binder: values may come before it.

How the values were obtained:
[1] = target: T1, YTHDC2 (mouse (endogenous in testis)) (UniProt B2RR83); experiment: co-IP; anti-MEIOC or anti-YTHDC2 antibody or IgG control on Protein G Dynabeads; adult (3-month-old C57BL/6) testis lysate; 25mM Tris-HCl pH7.5, 150mM NaCl, 1.5mM MgCl2, 1mM DTT, 0.4% Triton X-100, Benzonase nuclease; overnight at 4°C; immunoblotting
T1 sequence: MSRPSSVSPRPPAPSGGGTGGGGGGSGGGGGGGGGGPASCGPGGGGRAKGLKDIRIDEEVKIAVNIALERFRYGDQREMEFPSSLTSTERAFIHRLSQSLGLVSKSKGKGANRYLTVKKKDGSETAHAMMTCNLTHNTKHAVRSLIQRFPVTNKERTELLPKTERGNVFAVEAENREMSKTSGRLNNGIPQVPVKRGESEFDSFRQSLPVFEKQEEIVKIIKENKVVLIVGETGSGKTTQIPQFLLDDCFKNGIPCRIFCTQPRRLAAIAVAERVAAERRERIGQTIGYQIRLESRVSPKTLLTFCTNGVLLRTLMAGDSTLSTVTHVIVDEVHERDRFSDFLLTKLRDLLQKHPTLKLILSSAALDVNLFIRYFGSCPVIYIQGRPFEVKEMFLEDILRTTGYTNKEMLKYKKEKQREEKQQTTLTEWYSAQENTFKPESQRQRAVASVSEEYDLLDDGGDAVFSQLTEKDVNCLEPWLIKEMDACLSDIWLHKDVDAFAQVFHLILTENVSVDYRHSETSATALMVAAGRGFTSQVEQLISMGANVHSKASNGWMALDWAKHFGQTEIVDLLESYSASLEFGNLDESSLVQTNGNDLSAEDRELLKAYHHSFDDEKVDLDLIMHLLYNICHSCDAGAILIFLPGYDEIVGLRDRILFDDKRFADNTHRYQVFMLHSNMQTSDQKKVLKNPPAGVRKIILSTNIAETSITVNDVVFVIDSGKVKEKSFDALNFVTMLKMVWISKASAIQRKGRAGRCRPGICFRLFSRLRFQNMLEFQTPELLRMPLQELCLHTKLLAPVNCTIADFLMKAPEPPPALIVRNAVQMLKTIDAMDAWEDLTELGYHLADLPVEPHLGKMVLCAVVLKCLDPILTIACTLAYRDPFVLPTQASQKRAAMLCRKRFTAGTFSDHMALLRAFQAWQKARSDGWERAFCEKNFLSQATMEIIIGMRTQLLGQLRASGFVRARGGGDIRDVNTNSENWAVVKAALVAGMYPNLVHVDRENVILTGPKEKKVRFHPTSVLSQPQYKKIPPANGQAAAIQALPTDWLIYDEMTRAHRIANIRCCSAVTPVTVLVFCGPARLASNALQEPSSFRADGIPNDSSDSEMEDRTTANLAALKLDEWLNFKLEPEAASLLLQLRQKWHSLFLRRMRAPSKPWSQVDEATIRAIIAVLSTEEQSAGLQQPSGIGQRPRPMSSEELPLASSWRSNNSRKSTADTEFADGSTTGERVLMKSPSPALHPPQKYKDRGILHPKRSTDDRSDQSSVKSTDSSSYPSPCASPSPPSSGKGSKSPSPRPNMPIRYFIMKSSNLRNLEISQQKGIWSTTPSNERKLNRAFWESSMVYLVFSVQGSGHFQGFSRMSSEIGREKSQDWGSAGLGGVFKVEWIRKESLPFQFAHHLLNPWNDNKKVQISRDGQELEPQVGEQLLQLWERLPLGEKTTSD

[2] = target: T2, MEIOC (mouse (endogenous in testis)) (UniProt A2AG06); experiment: as above
T2 sequence: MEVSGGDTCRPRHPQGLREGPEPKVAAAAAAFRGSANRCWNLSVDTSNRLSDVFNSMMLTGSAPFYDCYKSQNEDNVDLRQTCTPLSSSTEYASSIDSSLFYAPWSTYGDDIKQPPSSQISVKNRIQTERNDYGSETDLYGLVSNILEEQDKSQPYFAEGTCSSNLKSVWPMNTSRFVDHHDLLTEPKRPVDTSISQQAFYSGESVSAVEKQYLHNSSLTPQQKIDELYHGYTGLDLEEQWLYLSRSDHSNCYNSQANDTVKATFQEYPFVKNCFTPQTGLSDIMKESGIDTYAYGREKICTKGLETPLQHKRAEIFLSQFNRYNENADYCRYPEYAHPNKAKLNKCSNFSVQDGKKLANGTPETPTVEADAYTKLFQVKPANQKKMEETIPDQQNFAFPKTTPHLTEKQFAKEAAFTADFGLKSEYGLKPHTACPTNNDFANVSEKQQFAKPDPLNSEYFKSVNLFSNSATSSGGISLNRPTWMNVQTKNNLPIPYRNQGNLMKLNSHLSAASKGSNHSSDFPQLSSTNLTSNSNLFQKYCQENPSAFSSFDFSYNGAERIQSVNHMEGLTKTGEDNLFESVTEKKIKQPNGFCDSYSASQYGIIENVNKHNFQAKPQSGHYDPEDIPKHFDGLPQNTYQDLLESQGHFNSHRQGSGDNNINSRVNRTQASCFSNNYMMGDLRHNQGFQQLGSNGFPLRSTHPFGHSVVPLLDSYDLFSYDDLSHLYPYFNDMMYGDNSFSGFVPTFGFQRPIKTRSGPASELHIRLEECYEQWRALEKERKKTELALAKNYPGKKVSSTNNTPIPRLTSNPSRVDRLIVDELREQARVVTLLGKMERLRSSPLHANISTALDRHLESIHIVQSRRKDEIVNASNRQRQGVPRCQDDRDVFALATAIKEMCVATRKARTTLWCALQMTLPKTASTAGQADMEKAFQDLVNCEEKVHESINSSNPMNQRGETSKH

binding [1]: binds
B1: MEIOC (protein, UniProt A2AG06-1 1-965)
chain: T2 sequence

binding [2]: binds
B2: YTHDC2 (protein, UniProt B2RR83 1-1445)
chain: T1 sequence
